Measured values: the supplement of paper PMC3334620
Over roughly 33,000 sequences, “E-score (-0.5 to 0.5)” has its median near -0.0014; the highest 2% begin near 0.25. Some of the results follow.

molecular target: T1, Cad1 (UniProt P24813); assay: PBM E-score (8-mer binding enrichment) (E-score (-0.5 to 0.5)); higher = stronger / more preferred TF binding; conditions: protein concentration: 100 nM; construct: GST-full length
T1 sequence: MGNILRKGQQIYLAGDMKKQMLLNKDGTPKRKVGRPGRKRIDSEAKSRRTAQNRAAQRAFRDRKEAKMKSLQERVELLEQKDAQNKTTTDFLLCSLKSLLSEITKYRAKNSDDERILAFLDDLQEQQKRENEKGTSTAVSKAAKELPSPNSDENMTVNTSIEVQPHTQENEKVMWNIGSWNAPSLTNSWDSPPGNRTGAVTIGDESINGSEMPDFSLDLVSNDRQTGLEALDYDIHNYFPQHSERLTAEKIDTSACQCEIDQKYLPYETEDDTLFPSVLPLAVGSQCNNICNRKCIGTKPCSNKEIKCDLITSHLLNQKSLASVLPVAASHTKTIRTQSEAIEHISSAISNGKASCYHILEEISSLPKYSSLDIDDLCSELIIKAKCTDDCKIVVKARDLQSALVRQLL
Description: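 Universal 'all 10-mer' protein binding microarrays (Agilent AMADID 015681) probed with GST-tagged S. cerevisiae TFs (full-length or DBD) made by in vitro transcription/translation (PURExpress), about 100-200 nM. Bound TF was detected with fluorescent anti-GST. Each ungapped 8-mer (which stands for itself and its reverse complement) is scored by the PBM enrichment score (E-score), a modified Wilcoxon-Mann-Whitney statistic from -0.5 to +0.5, computed with the Universal PBM Analysis Suite. Scale: above 0.35 generally sequence-specific binding.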

Sequence | PBM E-score
CCGTATTC | -0.0178
AGCTGACA | 0.192
AGCGGCCT | -0.104
AGTTGTAG | 0.0997
GCTGCGCA | 0.00523
ACGCTCGA | 0.0803
ACAAGGGA | -0.111
CCCGAAGA | -0.0938
CCAAACGA | 0.0619
ATGGGCAG | -0.0566
GCATCCGA | -0.0284
AGTCGACC | 0.107
TACGGCCA | -0.105
GCGAGAAC | 0.0451
ACTTAGCT | -0.106
ATCTGTAA | 0.0272
AACTAACG | 0.122
ACCTGTCT | -0.11
ACAGCACA | 0.132
CGGCTTTA | -0.151
GCCCCGCA | -0.186
ACACCCCG | -0.211
GCCTAGGA | -0.158
CTGCTTGC | -0.0849
CAATTGAG | 0.138

Part of the list above, as a markdown table:

| Sequence | PBM E-score |
| --- | --- |
| CCCGAAGA | -0.0938 |
| CCAAACGA | 0.0619 |
| ATGGGCAG | -0.0566 |
| GCATCCGA | -0.0284 |
| AGTCGACC | 0.107 |

Further entries.

Sequence | PBM E-score
ATCTATCG | -0.0482
ATAACTGC | 0.0321
AGCAAGTC | -0.088
ACGGAGCT | -0.227
ATTTTCTG | 0.0276
AAGCCCCA | -0.197
ACGACGTC | -0.0646
CAAGAGAA | 0.115
CGTACTGA | 0.0404
CGGACTGA | 0.0224
GTAACACA | 0.108
CGCCCCTA | -0.0364
AACAGTAG | 0.0345
AAAGTCGC | 0.124
AATCAGAG | 0.126
GGACTAAA | -0.0691
CGATCGGC | 0.0161
CATTGAGA | -0.109
GGATTCCC | -0.297
AGCAAACA | 0.077
CAGCGTCA | -0.131
CCAGGTCA | -0.323
GGGTTAAC | 0.0259
CCTCTTAC | -0.126
AATCTGAT | 0.106

Sequence | PBM E-score
TGGCTCAA | -0.0222
CATTGCGA | -0.0373
AGTTCCTG | -0.0833
CGTTCAAA | 0.0232
ATCCTTGC | -0.00968
AACCATTG | -0.0153
CAGAATGA | 0.035
GAAATGAA | 0.216
CCAGAACC | -0.0644
CCAAAGCA | -0.0819
AATTACCC | -0.0156
CGACGAAG | -0.0174
GTGTAGAA | -0.138
CTATAGAC | -0.0559
AGCTTGGG | -0.104
GGTTTGCA | -0.00846
CCCTAGCA | -0.141
GCTCTGCC | -0.303
ACTACCTA | 0.0704
AGACCCTC | -0.229
CCCTTAAC | -0.237
ATCACTTC | 0.0521
GGTGTGGA | 0.00718
CATTCACG | -0.0502
GGACCTAA | -0.0962

Sequence | PBM E-score
CGTGGAAG | 0.155
CGCCTTAA | 0.00716
GGGGGACA | -0.326
CGCCGTGA | -0.117
CACGGGGC | -0.076
AGAGGTCA | -0.0772
CGCCATGC | -0.13
ATATAATA | 0.261
GGGTAACA | -0.0678
CACGCGTC | 0.189
CCTAGTAC | -0.0245
CCAGGCAA | -0.0574
CTGCACCA | -0.157
TGCAACCA | -0.096
GTGGTGAA | 0.00074
CCTGGACA | -0.00527
CTCATGCC | -0.0123
ACGACGGG | -0.0583
CTTTTGTA | 0.13
AGCGAGAC | -0.16
GGTTATCA | -0.0747
CTTCTGGC | -0.0168
AACTTTGT | 0.0235
ATTCCCCA | 0.0165
CAGTAACC | -0.0321

Already shown: an excerpt of the list.
Sequence | PBM E-score
CACGGGGC | -0.076
AGAGGTCA | -0.0772
CGCCATGC | -0.13
ATATAATA | 0.261
GGGTAACA | -0.0678
CACGCGTC | 0.189
CCTAGTAC | -0.0245

(listing goes on)

Sequence | PBM E-score
CACGGGCA | -0.145
AGTGTCAG | -0.0118
ACTCCATC | 0.092
AAGTTAGG | -0.00194
ACTCGTCA | 0.0115
CTTAGGGA | -0.182
CCCCAACG | 0.0976
CGAGTAAC | 0.147
CTAGCACA | -0.212
ACGTGCAT | -0.0352
ACTTCCCC | -0.361
TTCGACAA | 0.0549
CAGCACAC | -0.152
ACAACAAG | 0.0211
GGACCCTA | -0.282
GCTGCGGA | 0.0108
GTGTATCA | 0.146
CGCCGCCG | 0.0125
ATCCAAAG | 0.236
AAGGGGGG | -0.499
ACTAGGGC | -0.101
CAATCGTA | 0.17
GTCCTAAC | -0.145
CACAGCGC | 0.0512
AAAATACG | 0.221

Sequence | PBM E-score
CAATTTCA | 0.0182
CGGTCTAG | -0.125
GGAGGGCA | -0.153
TACTGGAA | 0.0153
CAGTACTG | 0.071
ATGGATGC | 0.0645
ATTAACCG | 0.171
GACTCTAC | -0.0913
AGTTCTTG | 0.063
CACTGCAC | -0.00653
ATGGTAAA | 0.0942
CGGAATAA | 0.0145
AAGATCGT | -0.0494
CTTTTTAC | 0.018
CTCTTTTA | -0.165
AAAGATCC | -0.149
AGGTTCCG | 0.117
CAGGGTCG | -0.117
CCCGGATC | 0.0164
TGCACAAA | 0.0803
AGCCATAC | -0.0685
AATCCTCG | 0.0842
AGTGTCTC | -0.0122
CCGTTTAA | 0.0765
ACCAGTTA | 0.0728

Sequence | PBM E-score
CGCTGTCA | -0.00518
GCTGCCAA | -0.129
ATATGGCA | 0.125
CACCCACG | -0.0164
GATGTTGC | 0.041
ACAGACTC | -0.119
CACACAGG | 0.0713
GTTCTTCA | -0.0376
ATGGCAAC | 0.137
GAATGGTA | -0.0628
GTGTGTGA | 0.0506
AAATCGTA | -0.0277
TCGGCGAA | 0.067
GCTTGCCA | -0.187
AGCGCGCT | 0.152
AGGTATTA | 0.167
ACTACTAG | 0.0646
CTACCGCA | -0.0587
AAGAGGTG | 0.0182
CATAATCG | 0.196
ATTAAGTC | 0.17
CTGAAGTC | -0.0337
